Reference: PubChem BioAssay AID1224828 (NIAID, 2016)
This is a random part of about 17,000 deposited reagents. In the full data, 762 (4.5%) are marked active. 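Active calls include both raised and lowered p65 entry, mostly lowered; wells with fewer than 50 cells lack a z-score.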 Raw values vary from plate to plate and are shown uncorrected. The numbers tell different reagents against one gene apart. No sequences are given here.

Screen: 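Knock-downs that increase or decrease LPS-induced p65 nuclear translocation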 (primary screen)
Cell system: mouse RAW264.7 G9 macrophage reporter cells (GFP-p65, Tnf promoter-mCherry)
Reagent: siRNA pool against mouse genes, 100 nM
Timing: 2 days siRNA transfection, then 40 min LPS before fixation
Treatment: LPS (Salmonella minnesota R595) at 10 ng/ml
Read-out: 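Imaged p65 nuclear translocation ratio, normalised to the plate median, converted to robust z-scores and averaged across two replicates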
Scale: p65 translocation robust z-score: higher = more nuclear NF-kappaB p65 after LPS than the plate median; nuclear/cytoplasmic p65 ratio: higher = more nuclear NF-kappaB p65
Rule for the call: 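Active if robust z is above 3.3 (negative regulators) or below -1.56, the Tlr4 control median (positive regulators); activity score 50 or more; control wells not called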
Calls: active = hit (p65 shift raised or lowered); inactive = no clear change

Target gene | pool no. | p65 translocation robust z-score | nuclear/cytoplasmic p65 ratio, rep 1 | nuclear/cytoplasmic p65 ratio, rep 2 | low cell count flag | activity call
Atat1 | 1 | – | 0.591 | 1.27 | fewer than 50 cells per well; well left out of scoring | inactive
Fhod1 | 1 | 0.47 | 1.52 | 1.66 | enough cells to score | inactive
Or51a8 | 1 | – | 1.42 | 1.2 | fewer than 50 cells per well; well left out of scoring | inactive
Gpr27 | 1 | -0.77 | 1.38 | 1.49 | enough cells to score | inactive
Mmrn1 | 1 | -0.09 | 1.43 | 1.33 | enough cells to score | inactive
C1ql2 | 1 | 1.64 | 1.61 | 1.8 | enough cells to score | inactive
Phpt1 | 1 | -0.73 | 1.37 | 1.34 | enough cells to score | inactive
Coa5 | 1 | -0.75 | 1.3 | 1.24 | enough cells to score | inactive
Coa5 | 2 | -0.43 | 1.26 | 1.46 | enough cells to score | inactive
Or2z2 | 1 | – | 1.89 | 1.37 | fewer than 50 cells per well; well left out of scoring | inactive
Dnah2 | 1 | -0.14 | 1.48 | 1.6 | enough cells to score | inactive
Epb41l5 | 1 | 1.43 | 1.82 | 1.64 | enough cells to score | inactive
Scd3 | 1 | 0.38 | 1.45 | 1.28 | enough cells to score | inactive
Oard1 | 1 | 0.49 | 1.67 | 1.77 | enough cells to score | inactive
Pcare | 1 | -0.47 | 1.66 | 1.59 | enough cells to score | inactive
Ces4a | 1 | -1.16 | 1.4 | 1.66 | enough cells to score | inactive
Cmah | 1 | -0.57 | 1.42 | 1.78 | enough cells to score | inactive
Zmpste24 | 1 | 0.38 | 1.68 | 1.55 | enough cells to score | inactive

6 entries already listed, arranged by “p65 translocation robust z-score”, descending.
Target gene | pool no. | p65 translocation robust z-score | nuclear/cytoplasmic p65 ratio, rep 1 | nuclear/cytoplasmic p65 ratio, rep 2 | low cell count flag | activity call
Oard1 | 1 | 0.49 | 1.67 | 1.77 | enough cells to score | inactive
Scd3 | 1 | 0.38 | 1.45 | 1.28 | enough cells to score | inactive
Zmpste24 | 1 | 0.38 | 1.68 | 1.55 | enough cells to score | inactive
Pcare | 1 | -0.47 | 1.66 | 1.59 | enough cells to score | inactive
Cmah | 1 | -0.57 | 1.42 | 1.78 | enough cells to score | inactive
Ces4a | 1 | -1.16 | 1.4 | 1.66 | enough cells to score | inactive

More reagents follow:
Target gene | pool no. | p65 translocation robust z-score | nuclear/cytoplasmic p65 ratio, rep 1 | nuclear/cytoplasmic p65 ratio, rep 2 | low cell count flag | activity call
Slc67a1 | 1 | 0.81 | 1.53 | 1.73 | enough cells to score | inactive
Mpp4 | 1 | 0.07 | 1.91 | 1.5 | enough cells to score | inactive
Stk33 | 1 | -0.25 | 1.7 | 1.35 | enough cells to score | inactive
Grm4 | 1 | 1.73 | 1.7 | 1.89 | enough cells to score | inactive
Defa1 | 1 | 0.09 | 1.53 | 1.61 | enough cells to score | inactive
Shpk | 1 | -0.78 | 1.52 | 1.29 | enough cells to score | inactive
Rnf181 | 1 | 0.74 | 1.5 | 1.48 | enough cells to score | inactive
Parva | 1 | 1.04 | 1.49 | 1.64 | enough cells to score | inactive
Art5 | 1 | 1.08 | 1.58 | 1.74 | enough cells to score | inactive
Smpd1 | 1 | -0.38 | 1.5 | 1.5 | enough cells to score | inactive
Ncor1 | 1 | -0.01 | 1.44 | 1.34 | enough cells to score | inactive
Ift172 | 1 | 0.26 | 1.53 | 1.52 | enough cells to score | inactive
Vwa1 | 1 | 0.82 | 1.32 | 1.45 | enough cells to score | inactive
Pole4 | 1 | – | 1.34 | 1.16 | fewer than 50 cells per well; well left out of scoring | inactive
Tulp2 | 1 | 1.67 | 1.73 | 1.75 | enough cells to score | inactive
Mff | 1 | – | 1.24 | 1.26 | fewer than 50 cells per well; well left out of scoring | inactive
Or9i1 | 1 | -1.41 | 1.41 | 1.24 | enough cells to score | inactive
Sbf2 | 1 | 0.04 | 1.72 | 1.66 | enough cells to score | inactive
Cycs | 1 | 1.17 | 1.77 | 1.95 | enough cells to score | inactive
Fut7 | 1 | -0.62 | 1.54 | 1.34 | enough cells to score | inactive
Or10ag53 | 1 | -0.86 | 1.59 | 1.39 | enough cells to score | inactive
Pof1b | 1 | -0.82 | 1.34 | 1.06 | enough cells to score | inactive
